These are yes or no findings as the source states them, for the method shown. In cells and extracts the contact can be indirect. Some entries that bind do so weakly or less than the wild type. For part of these data: Sequences can lack the tags named with a protein.

Consider two molecules from PMC6050272.

The target in test [1] is stimulator of interferon genes (STING), epitope-tagged (HA-STING; Myc-STING), Q86WV6. Kind of test: co-IP; epitope-tagged proteins co-transfected in HEK 293T cells; NP-40 lysis buffer (50 mM Tris-Cl pH 7.4, 150 mM NaCl, 1 mM EDTA, 1% NP-40); antibody overnight at 4 °C, protein A agarose; washes with NP-40 lysis buffer containing 250 mM NaCl; immunoblot; in some panels with or without co-expressed NIK. Conditions: remark: other sources report otherwise. (In general: Immunoblotting shows a protein as a band on a membrane.)

Test [2] deals with T1, STING, endogenous in mouse cells (mouse (endogenous in MEFs and BMDMs)) (UniProt Q3TBT3).
T1 sequence: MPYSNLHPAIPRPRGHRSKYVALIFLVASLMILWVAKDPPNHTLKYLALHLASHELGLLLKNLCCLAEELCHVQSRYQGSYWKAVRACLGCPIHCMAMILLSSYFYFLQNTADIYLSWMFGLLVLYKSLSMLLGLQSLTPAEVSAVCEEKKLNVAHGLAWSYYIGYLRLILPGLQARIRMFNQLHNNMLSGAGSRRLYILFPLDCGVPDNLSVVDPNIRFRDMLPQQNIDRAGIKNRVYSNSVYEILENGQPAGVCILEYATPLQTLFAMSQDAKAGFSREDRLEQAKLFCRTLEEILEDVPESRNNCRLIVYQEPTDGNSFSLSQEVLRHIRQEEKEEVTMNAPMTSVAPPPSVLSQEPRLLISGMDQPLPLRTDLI
Kind of test: co-IP; endogenous proteins in WT and Nik-/- BMDMs transfected with B-DNA (2 μg/mL) for the indicated times, immunoprecipitated for STING; NP-40 lysis buffer, washes with 250 mM NaCl; immunoblot.

The target in test [3] is T1, STING, endogenous in mouse cells (mouse (endogenous in MEFs and BMDMs)). Nature of the test: co-IP; endogenous proteins in MEF cells transfected with B-DNA (2 μg/mL) for the indicated times (Fig. 3b: immunoprecipitated for STING; Fig. 4h: pretreated with DMSO or SMAC mimetic 1 μg/mL for 16 h); NP-40 lysis buffer, washes with 250 mM NaCl; immunoblot.

B1: interferon regulatory factor 3 (IRF3), epitope-tagged (HA-IRF3; Flag-IRF3), Q14653 1-427 (protein)
chain: MGTPKPRILPWLVSQLDLGQLEGVAWVNKSRTRFRIPWKHGLRQDAQQEDFGIFQAWAEATGAYVPGRDKPDLPTWKRNFRSALNRKEGLRLAEDRSKDPHDPHKIYEFVNSGVGDFSQPDTSPDTNGGGSTSDTQEDILDELLGNMVLAPLPDPGPPSLAVAPEPCPQPLRSPSLDNPTPFPNLGPSENPLKRLLVPGEEWEFEVTAFYRGRQVFQQTISCPEGLRLVGSEVGDRTLPGWPVTLPDPGMSLTDRGVMSYVRHVLSCLGGGLALWRAGQWLWAQRLGHCHTYWAVSEELLPNSGHGPDGEVPKDKEGGVFDLGPFIVDLITFTEGSGRSPRYALWFCVGESWPQDQPWTKRLVMVKVVPTCLRALVEMARVGGASSLENTVDLHISNSHPLSLTSDQYKAYLQDLVEGMDFQGPGES
For B1, the binding entry in test [1] is “binds”.

B2: IRF3, endogenous in mouse cells (protein, UniProt P70671 1-419)
chain: METPKPRILPWLVSQLDLGQLEGVAWLDESRTRFRIPWKHGLRQDAQMADFGIFQAWAEASGAYTPGKDKPDVSTWKRNFRSALNRKEVLRLAADNSKDPYDPHKVYEFVTPGARDFVHLGASPDTNGKSSLPHSQENLPKLFDGLILGPLKDEGSSDLAIVSDPSQQLPSPNVNNFLNPAPQENPLKQLLAEEQWEFEVTAFYRGRQVFQQTLFCPGGLRLVGSTADMTLPWQPVTLPDPEGFLTDKLVKEYVGQVLKGLGNGLALWQAGQCLWAQRLGHSHAFWALGEELLPDSGRGPDGEVHKDKDGAVFDLRPFVADLIAFMEGSGHSPRYTLWFCMGEMWPQDQPWVKRLVMVKVVPTCLKELLEMAREGGASSLKTVDLHISNSQPISLTSDQYKAYLQDLVEDMDFQATGNI
Turning to B2, the binding result in test [2] and in test [3] was “binds” each time.
